These are yes or no findings as the source states them, for the method shown. Binding seen in cells or lysates may run through a third protein. A yes stands for co-enrichment or nearness to the bait. Other partners may have been found. A no says only that the protein was not detected with the bait. Sequences can lack the tags named with a protein.
Target: T1, FLAG-C18ORF25-WT (mouse) (UniProt Q8BH50)
T1 sequence: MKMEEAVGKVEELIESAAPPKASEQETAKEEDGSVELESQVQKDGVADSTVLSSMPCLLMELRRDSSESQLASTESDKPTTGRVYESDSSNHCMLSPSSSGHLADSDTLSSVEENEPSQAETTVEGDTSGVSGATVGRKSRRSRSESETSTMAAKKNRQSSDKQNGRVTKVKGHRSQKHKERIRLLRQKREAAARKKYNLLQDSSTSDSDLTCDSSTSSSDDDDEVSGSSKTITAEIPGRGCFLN
Test: affinity purification with mass spectrometry

Amino acid sequences for entries named in this document (tags omitted).
UniProt P52019: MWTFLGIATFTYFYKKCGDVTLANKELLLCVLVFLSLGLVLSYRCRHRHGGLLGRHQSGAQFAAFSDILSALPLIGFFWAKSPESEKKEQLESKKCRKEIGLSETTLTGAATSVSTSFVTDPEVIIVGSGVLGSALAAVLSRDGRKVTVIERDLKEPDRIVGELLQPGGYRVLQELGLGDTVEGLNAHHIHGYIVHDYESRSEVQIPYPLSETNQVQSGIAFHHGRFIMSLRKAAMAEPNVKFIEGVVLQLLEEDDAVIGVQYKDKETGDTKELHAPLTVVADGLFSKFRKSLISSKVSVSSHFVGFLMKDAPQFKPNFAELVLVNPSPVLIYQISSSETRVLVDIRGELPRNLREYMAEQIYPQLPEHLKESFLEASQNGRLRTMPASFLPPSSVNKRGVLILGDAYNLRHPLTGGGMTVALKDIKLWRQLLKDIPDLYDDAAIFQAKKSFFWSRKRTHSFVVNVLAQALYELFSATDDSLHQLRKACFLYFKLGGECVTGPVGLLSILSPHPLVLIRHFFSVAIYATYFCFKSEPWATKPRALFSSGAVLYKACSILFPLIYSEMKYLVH
UniProt P63094: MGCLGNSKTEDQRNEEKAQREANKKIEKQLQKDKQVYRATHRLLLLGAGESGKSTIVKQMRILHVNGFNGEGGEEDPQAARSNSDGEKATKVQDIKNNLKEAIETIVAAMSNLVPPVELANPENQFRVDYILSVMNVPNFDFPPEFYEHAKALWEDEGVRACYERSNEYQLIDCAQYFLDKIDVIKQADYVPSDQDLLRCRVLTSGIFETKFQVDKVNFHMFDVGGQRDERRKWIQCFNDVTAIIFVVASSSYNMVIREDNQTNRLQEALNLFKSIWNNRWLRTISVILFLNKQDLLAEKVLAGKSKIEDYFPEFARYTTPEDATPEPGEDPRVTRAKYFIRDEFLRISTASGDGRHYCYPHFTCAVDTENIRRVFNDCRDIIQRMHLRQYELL
UniProt Q80U72: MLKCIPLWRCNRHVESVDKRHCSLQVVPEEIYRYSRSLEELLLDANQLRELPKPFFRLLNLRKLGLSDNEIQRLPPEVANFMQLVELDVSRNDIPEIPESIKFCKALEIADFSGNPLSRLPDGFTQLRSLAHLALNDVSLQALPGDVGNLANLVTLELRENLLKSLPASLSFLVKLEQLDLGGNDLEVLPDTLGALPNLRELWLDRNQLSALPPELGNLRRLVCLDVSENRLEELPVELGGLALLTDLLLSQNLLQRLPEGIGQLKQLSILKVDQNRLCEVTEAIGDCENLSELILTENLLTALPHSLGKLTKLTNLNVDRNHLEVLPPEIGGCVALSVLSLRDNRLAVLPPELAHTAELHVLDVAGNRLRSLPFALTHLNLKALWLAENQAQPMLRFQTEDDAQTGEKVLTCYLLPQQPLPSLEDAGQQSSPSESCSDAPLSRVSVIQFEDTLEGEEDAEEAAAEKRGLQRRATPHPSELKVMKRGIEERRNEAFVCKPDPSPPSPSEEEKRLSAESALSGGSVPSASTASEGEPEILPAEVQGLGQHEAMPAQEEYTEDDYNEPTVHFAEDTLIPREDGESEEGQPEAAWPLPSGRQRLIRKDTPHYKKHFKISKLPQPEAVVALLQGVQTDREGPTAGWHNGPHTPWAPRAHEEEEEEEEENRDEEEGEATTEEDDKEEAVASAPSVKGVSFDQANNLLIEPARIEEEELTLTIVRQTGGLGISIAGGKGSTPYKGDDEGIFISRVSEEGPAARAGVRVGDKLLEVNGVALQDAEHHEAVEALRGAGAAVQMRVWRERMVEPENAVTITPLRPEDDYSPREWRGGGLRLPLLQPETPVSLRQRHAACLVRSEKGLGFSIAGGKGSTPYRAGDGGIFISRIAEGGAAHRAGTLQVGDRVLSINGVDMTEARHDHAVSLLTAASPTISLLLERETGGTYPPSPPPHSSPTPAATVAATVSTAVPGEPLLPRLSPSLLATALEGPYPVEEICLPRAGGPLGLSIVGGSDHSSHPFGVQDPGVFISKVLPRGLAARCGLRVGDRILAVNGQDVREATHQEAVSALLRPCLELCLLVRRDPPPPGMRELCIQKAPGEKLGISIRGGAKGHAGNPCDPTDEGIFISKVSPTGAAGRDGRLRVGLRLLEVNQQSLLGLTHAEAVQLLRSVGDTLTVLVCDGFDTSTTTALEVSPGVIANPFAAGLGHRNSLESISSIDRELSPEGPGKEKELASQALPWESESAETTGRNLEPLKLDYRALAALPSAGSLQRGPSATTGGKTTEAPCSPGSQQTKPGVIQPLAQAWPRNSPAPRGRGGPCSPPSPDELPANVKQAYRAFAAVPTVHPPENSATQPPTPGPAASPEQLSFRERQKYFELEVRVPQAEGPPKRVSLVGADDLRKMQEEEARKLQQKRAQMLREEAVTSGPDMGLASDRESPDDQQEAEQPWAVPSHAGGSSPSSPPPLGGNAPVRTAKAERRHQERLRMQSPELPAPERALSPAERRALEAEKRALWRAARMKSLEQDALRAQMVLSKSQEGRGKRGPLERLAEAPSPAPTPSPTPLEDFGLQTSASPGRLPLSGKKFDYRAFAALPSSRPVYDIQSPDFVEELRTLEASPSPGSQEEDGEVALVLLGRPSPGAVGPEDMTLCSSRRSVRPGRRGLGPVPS
UniProt P05627: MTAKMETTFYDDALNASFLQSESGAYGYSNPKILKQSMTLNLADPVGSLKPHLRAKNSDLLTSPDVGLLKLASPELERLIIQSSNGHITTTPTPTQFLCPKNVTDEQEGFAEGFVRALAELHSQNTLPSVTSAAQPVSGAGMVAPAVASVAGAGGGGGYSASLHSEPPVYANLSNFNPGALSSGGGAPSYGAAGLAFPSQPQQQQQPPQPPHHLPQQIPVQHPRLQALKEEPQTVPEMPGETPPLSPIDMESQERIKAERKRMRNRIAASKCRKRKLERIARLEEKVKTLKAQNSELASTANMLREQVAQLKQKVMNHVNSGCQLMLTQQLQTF
UniProt Q5NBX1: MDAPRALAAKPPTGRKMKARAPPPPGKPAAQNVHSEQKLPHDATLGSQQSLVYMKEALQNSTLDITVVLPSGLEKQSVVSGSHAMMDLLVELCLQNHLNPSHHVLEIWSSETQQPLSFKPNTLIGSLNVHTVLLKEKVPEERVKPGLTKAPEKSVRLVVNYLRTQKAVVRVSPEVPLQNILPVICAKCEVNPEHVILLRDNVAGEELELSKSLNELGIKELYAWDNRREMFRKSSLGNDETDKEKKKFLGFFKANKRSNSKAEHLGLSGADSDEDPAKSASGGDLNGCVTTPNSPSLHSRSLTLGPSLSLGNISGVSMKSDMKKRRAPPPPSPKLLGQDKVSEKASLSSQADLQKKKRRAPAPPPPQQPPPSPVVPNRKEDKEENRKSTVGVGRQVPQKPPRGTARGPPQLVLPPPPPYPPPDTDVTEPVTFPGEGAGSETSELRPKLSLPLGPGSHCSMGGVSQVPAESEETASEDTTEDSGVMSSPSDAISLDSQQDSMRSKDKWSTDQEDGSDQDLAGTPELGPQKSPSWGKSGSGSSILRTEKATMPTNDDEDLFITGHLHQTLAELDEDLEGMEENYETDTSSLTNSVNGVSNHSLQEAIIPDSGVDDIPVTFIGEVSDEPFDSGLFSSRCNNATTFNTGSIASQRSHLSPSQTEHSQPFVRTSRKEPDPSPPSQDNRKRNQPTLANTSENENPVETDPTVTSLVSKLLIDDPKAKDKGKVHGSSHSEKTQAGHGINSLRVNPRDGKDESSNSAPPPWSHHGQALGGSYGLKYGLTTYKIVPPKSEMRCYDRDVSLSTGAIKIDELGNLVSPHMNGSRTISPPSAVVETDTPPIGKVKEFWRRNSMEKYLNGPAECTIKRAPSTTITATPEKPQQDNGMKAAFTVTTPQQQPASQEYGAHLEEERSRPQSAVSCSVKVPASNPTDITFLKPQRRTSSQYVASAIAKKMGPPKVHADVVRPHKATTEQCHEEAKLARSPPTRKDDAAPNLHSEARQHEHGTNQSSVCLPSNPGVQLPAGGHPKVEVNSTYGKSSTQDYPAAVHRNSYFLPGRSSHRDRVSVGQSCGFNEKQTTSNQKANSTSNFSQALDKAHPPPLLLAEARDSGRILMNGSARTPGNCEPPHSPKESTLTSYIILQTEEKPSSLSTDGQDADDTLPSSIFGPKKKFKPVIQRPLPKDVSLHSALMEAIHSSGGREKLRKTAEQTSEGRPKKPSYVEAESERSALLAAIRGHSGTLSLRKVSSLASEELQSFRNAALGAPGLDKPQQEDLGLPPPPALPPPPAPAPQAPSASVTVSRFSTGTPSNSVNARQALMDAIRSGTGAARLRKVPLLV
UniProt P60766: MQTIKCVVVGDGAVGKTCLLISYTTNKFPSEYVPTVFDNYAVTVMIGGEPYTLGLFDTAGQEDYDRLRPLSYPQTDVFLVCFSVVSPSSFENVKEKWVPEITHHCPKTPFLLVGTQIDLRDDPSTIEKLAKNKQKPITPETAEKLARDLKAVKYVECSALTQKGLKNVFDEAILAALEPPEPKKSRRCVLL
UniProt Q9QUI0: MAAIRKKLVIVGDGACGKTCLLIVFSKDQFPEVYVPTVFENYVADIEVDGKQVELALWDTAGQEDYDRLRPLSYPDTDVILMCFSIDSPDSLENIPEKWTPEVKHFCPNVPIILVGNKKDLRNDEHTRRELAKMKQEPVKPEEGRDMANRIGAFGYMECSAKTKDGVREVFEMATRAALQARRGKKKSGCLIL
UniProt Q3UCQ1: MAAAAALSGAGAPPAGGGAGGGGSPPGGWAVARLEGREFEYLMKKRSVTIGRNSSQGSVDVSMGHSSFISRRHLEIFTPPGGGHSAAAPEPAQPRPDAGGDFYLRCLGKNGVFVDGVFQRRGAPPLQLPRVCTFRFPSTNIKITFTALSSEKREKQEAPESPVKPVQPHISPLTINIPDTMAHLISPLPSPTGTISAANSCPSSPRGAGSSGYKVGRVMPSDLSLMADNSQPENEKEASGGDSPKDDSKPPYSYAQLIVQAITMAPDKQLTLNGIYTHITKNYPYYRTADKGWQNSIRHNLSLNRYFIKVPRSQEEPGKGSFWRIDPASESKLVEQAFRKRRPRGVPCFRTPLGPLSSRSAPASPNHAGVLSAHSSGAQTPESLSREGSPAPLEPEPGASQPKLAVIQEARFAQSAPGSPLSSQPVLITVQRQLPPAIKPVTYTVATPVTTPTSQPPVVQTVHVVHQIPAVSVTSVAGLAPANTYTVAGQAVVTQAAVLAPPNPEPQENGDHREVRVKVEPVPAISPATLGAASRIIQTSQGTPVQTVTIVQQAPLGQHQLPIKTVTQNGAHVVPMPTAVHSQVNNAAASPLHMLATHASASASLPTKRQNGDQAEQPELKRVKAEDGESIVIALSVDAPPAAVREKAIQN
UniProt Q80XP8: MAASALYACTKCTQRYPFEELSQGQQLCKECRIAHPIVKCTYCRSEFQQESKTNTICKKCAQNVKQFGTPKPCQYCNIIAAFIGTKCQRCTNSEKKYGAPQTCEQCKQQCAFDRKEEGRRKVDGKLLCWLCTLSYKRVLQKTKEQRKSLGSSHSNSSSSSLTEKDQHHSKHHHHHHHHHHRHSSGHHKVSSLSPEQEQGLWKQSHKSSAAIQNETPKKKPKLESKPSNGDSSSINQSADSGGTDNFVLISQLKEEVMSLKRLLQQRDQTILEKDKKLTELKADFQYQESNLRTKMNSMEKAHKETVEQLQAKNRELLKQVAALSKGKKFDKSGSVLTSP

SQLE (from UniProt P52019 1-572) (enzyme)
binding: binds

GNAS (from UniProt P63094 1-394)
binding: binds

SCRIB (from UniProt Q80U72 1-1665)
binding: binds

Rab4 (mouse (endogenous in C2C12))
binding: binds

JUN (from UniProt P05627 1-334)
binding: binds

COBL (from UniProt Q5NBX1 1-1337)
binding: no binding

CDC42 (from UniProt P60766 1-191)
binding: binds

Rab5 (mouse (endogenous in C2C12))
binding: binds

GPATCH2 (C14ORF118) (mouse (endogenous in C2C12))
binding: binds

RHOA (from UniProt Q9QUI0 1-193)
binding: binds

FOXK2 (from UniProt Q3UCQ1 1-651)
binding: binds

FAM76B (from UniProt Q80XP8 1-339)
binding: binds

B1: RRAS2 (protein, UniProt P62071 1-204)
chain: MAAAGWRDGSGQEKYRLVVVGGGGVGKSALTIQFIQSYFVTDYDPTIEDSYTKQCVIDDRAARLDILDTAGQEEFGAMREQYMRTGEGFLLVFSVTDRGSFEEIYKFQRQILRVKDRDEFPMILIGNKADLDHQRQVTQEEGQQLARQLKVTYMEASAKIRMNVDQAFHELVRVIRKFQEQECPPSPEPTRKEKDKKGCHCVIF
binding: binds

B2: RALA (protein, UniProt P63321 1-206)
chain: MAANKPKGQNSLALHKVIMVGSGGVGKSALTLQFMYDEFVEDYEPTKADSYRKKVVLDGEEVQIDILDTAGQEDYAAIRDNYFRSGEGFLCVFSITEMESFAATADFREQILRVKEDENVPFLLVGNKSDLEDKRQVSVEEAKNRADQWNVNYVETSAKTRANVDKVFFDLMREIRARKMEDSKEKNGKKKRKSLAKRIRERCCIL
binding: binds

B3: RALB (protein, UniProt Q9JIW9 1-206)
chain: MAANKGKSQGSLVLHKVIMVGSGGVGKSALTLQFMYDEFVEDYEPTKADSYRKKVVLDGEEVQIDILDTAGQEDYAAIRDNYFRSGEGFLLVFSITEHESFTATAEFREQILRVKSEEDKIPLLVVGNKSDLEERRQVPVDEARGKAEEWGVQYVETSAKTRANVDKVFFDLMREIRAKKMSENKDKNGRKSSKSKKSFKERCCLL
binding: binds

B4: PDLIM5 (protein, UniProt Q8CI51-1 1-591)
chain: MSNYSVSLVGPAPWGFRLQGGKDFNMPLTISSLKDGGKASQAHVRIGDVVLSIDGISAQGMTHLEAQNKIKACTGSLNMTLQRASAAAKSEPVSVQKGEPKEVVKPVPITSPAVSKVTSTTNMAYNKAPRPFGSVSSPKVTSIPSPSSAFTPAHAATSSHASPTPVAAATPLHLSASGLHVSANLSADQCSSPPNTGKPAVNVPRQPTVTSVCSESAQELAEGQRRGSQGDIKQQNGPPRKHIVERNTEFYHIPTHSDASKKRLIEDTEDWRPRTGTTQSRSFRILAQITGTEHLTESENDNTKKANSTQEPSQQPASSGASPLSASEGPESPGSSRPSVAGLRSAAAFKPVGSTSVKSPSWQRPNQAAPSTGRISNNARSSGTGASVGPPQPSDQDTLVQRAEHIPAGKRTPMCAHCNQVIRGPFLVALGKSWHPEEFNCAHCKNTMAYIGFVEEKGALYCELCYEKFFAPECGRCQRKILGEVINALKQTWHVSCFVCVACGKPIRNNVFHLEDGEPYCETDYYALFGTICRGCEFPIEAGDMFLEALGYTWHDTCFVCSVCCESLEGQTFFSKKDKPLCKKHAHSVNF
binding: binds

B5: FHL2 (protein, UniProt O70433 1-279)
chain: MTERFDCHHCNESLYGKKYILKEENPHCVACFEELYANTCEECGTPIGCDCKDLSYKDRHWHEGCFHCSRCGSSLVDKPFAAKEEQLLCTDCYSNEYSSKCQECKKTIMPGTRKMEYKGSSWHETCFTCQRCQQPIGTKSFIPKENQNFCVPCYEKQYALQCVQCKKPITTGGVTYREQPWHKECFVCTACKKQLSGQRFTARDEFPYCLTCFCDLYAKKCAGCTNPISGLGGTKYISFEERQWHNDCFNCKKCSLSLVGRGFLTERDDILCPDCGKDI
binding: binds

B6: MYL2 (protein, UniProt P51667 1-166)
chain: MAPKKAKKRIEGGSSNVFSMFEQTQIQEFKEAFTIMDQNRDGFIDKNDLRDTFAALGRVNVKNEEIDEMIKEAPGPINFTVFLTMFGEKLKGADPEETILNAFKVFDPEGKGSLKADYVREMLTTQAERFSKEEIDQMFAAFPPDVTGNLDYKNLVHIITHGEEKD
binding: binds

B7: JUND (protein, UniProt P15066 1-341)
chain: METPFYGEEALSGLAAGASSVAGATGAPGGGGFAPPGRAFPGAPPTSSMLKKDALTLSLAEQGAAGLKPGSATAPSALRPDGAPDGLLASPDLGLLKLASPELERLIIQSNGLVTTTPTSTQFLYPKVAASEEQEFAEGFVKALEDLHKQSQLGAATAATSGAPAPPAPADLAATPGATETPVYANLSSFAGGAGPPGGAATVAFAAEPVPFPPPPGALGPPPPPHPPRLAALKDEPQTVPDVPSFGDSPPLSPIDMDTQERIKAERKRLRNRIAASKCRKRKLERISRLEEKVKTLKSQNTELASTASLLREQVAQLKQKVLSHVNSGCQLLPQHQVPAY
binding: binds

B8: PRPF31 (protein, UniProt Q8CCF0 1-499)
chain: MSLADELLADLEEAAEEEEGGSYGEEEEEPAIEDVQEETQLDLSGDSVKSIAKLWDSKMFAEIMMKIEEYISKQANVSEVMGPVEAAPEYRVIVDANNLTVEIENELNIIHKFIRDKYSKRFPELESLVPNALDYIRTVKELGNSLDKCKNNENLQQILTNATIMVVSVTASTTQGQQLSDEELERLEEACDMALELNASKHRIYEYVESRMSFIAPNLSIIIGASTAAKIMGVAGGLTNLSKMPACNIMLLGAQRKTLSGFSSTSVLPHTGYIYHSDIVQSLPPDLRRKAARLVAAKCTLAARVDSFHESTEGKVGYELKDEIERKFDKWQEPPPVKQVKPLPAPLDGQRKKRGGRRYRKMKERLGLTEIRKQANRMSFGEIEEDAYQEDLGFSLGHLGKSGSGRVRQTQVNEATKARISKTLQRTLQKQSVVYGGKSTIRDRSSGTASSVAFTPLQGLEIVNPQAAEKKVAEANQKYFSSMAEFLKVKGEKSGTMST
binding: binds

B9: PIP4K2B (protein, UniProt Q80XI4 1-416)
chain: MSSNCTSTTAVAVAPLSASKTKTKKKHFVCQKVKLFRASEPILSVLMWGVNHTINELSNVPVPVMLMPDDFKAYSKIKVDNHLFNKENLPSRFKFKEYCPMVFRNLRERFGIDDQDYQNSVTRSAPINSDSQGRCGTRFLTTYDRRFVIKTVSSEDVAEMHNILKKYHQFIVECHGNTLLPQFLGMYRLTVDGVETYMVVTRNVFSHRLTVHRKYDLKGSTVAREASDKEKAKDLPTFKDNDFLNEGQKLHVGEESKKNFLEKLKRDVEFLAQLKIMDYSLLVGIHDVDRAEQEEMEVEERAEEEECENDGVGGSLLCSYGTPPDSPGNLLSFPRFFGPGEFDPSVDVYAMKSHESAPKKEVYFMAIIDILTPYDAKKKAAHAAKTVKHGAGAEISTVNPEQYSKRFNEFMSNILT
binding: binds

Reference: paper doi:10.1101/2023.10.30.564812
